Laboratory results: publication doi:10.1101/2020.10.21.349050
The exact form of at least one protein or probe is not confirmed. For some of these results: Negatives hold for the conditions tested. For some of these results: Weaker means in comparison with the reference protein, sequence or condition of that experiment.

Amino acid sequences for entries named in this document (tags omitted).
UniProt P40381, whole entry K242A/K243A/K244A: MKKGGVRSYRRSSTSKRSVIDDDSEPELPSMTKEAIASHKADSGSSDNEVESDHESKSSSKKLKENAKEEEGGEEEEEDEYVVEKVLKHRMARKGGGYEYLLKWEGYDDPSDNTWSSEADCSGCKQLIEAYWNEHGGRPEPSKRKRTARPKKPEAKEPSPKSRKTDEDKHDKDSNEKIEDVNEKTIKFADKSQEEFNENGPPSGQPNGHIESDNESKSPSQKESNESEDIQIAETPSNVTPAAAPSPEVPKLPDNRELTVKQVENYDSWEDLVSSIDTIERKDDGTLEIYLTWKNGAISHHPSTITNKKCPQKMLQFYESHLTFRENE

What was measured:
Test in all cases: EMSA
[1] = biological target: GST-Swi6-CD-Hinge (Schizosaccharomyces pombe) (UniProt P40381)
[2] = biological target: GST-Swi6-CD (Schizosaccharomyces pombe) (UniProt P40381)
[3] = biological target: GST-Swi6-CSD (Schizosaccharomyces pombe) (UniProt P40381)
[4] = biological target: GST-Swi6 3K->3A K242A,K243A,K244A (Schizosaccharomyces pombe) (UniProt P40381); details: drastically reduced

ACAAGUGAUAAGAGUAGGUGU [E-For RNA]
binding result [1]: binds | binding result [2]: binds | binding result [3]: no binding

UGGAUUAAGGAGAAGCGGUA [D-For RNA]
binding result [4]: binds more weakly
